Results taken from ChEMBL document CHEMBL1122673, “Synthesis of a novel series of (aryloxy)propanolamines: new selective beta 2-blocking agents” (J Med Chem, 1984).
pEC50: −log10 of the molar value.

Species on record: Cavia porcellus
Assay: In vitro evaluation on guinea pig trachea. EC50 which is the molar concentration required to give 50% inhibition of the isoproterenol response (1x10E-6M) was determined.
Format: functional
Details: read-out: ED50 (the source's name)
Method in brief: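 Isolated guinea pig tracheal spirals were held at 1.50 g initial tension (resting 0.4–0.6 g) in Tyrode at 37 °C, gassed with O2/CO2 95:5, and contracted with acetylcholine 3 × 10^-6 M. Antagonist was added 15 min before Ach. Isoproterenol 3 × 10^-8 to 3 × 10^-6 M was added at maximal contraction. EC50 came from four points, with ≥4 preparations per group.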

Compound: CC(C)NCC(O)COc1cccc2ccccc12 (stereo unspecified) [PROPRANOLOL]
- pEC50: 8.00
